Source: US20230287094A1 (LUDWIG INSTITUTE FOR CANCER RESEARCH, published 2023)
Positions count from the first letter of the chain named. Results are given in words; binding and its absence hold for the method and conditions named. Some binding calls cover weakened binding; strength is not graded here. Each block holds one binder with its values, some of them ahead of it.

Assays:
[1] = biological target: T1, mouse TGF-β3 (mouse) (UniProt P17125); test: ELISA on recombinant TGF-β3 (FIG. 3)
T1 sequence: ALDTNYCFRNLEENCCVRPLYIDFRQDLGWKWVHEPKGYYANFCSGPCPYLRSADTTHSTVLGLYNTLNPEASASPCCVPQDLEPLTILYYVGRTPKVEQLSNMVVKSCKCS

[2] = biological target: T2, human TGF-β3 (human, UniProt P10600 301-412); test: ELISA on recombinant TGF-β3 (FIG. 3)
T2 sequence: T1 sequence

[3] = biological target: T2, human TGF-β3; test: dose-response ELISA on human TGF-β isoforms (FIG. 4B)
[4] = biological target: T2, human TGF-β3; test: ELISA on plates coated with 500 ng/ml human TGF-β isoforms, antibody at 3 µg/ml (FIG. 4A)

binding [1]: binds
B1: MTGF-β3-1203/11 (antibody, IgG2b, V domains shown)
VH: QVQLKQSGAELVKPGASVKISCKASGYTFTDYYINWVKQRPGQGLEWIGKIGPGTGRTYYNEKFKGKATLTADKSSSTAYMQLSSLTSEDSAVYFCAIYYGWGYAMDYWGQGTSVTVSS
VL: DIVMTQSPSSLSVSAGEKVTMSCKSSQSLLNSGNQKNYLAWYQQKSGQPPKLLIYGASTRESGVPDRFTGSGSGTDFTLTISSVQAEDLAVYYCQNDHGFPLTFGAGTKLELK

binding [2]: binds
binding [1]: binds
binding [3]: binds
binding [4]: binds
B2: MTGF-β3-1901/16 (antibody, IgG1, V domains shown)
VH: QVLLQQSGPELVKPGASVKISCKASGYAFSSSWIHWVKQRPGKGLEWIGRIYPGDGDTNYTGKFKGKATLTADKSSSTAYMQLSSLTSEDSAVYFCARRMITTQAAMDYWGQGTSVTVSS
VL: SFVMTQTPKFLLVSAGDRVTITCKASQSVINAVAWYQQKPGQSPKLLIYYASNRYTGVPDRFTGNGYGTDFTFTISTVQAEDLAVYFCQQDYSSPYTFGGGTKLEIK

binding [1]: binds
B3: MTGF-β3-1679/2 (antibody, IgG2a, V domains shown)
VH: B2 VH
VL: B2 VL

binding [1]: binds
B4: MTGF-β3-9/8 (antibody, IgG2a, V domains shown)
VH: B2 VH with I34M, Y52F, N59I, T61N, K63N
VL: B2 VL with F2I, A32D

binding [1]: binds
B5: MTGF-β3-1719/13 (antibody, IgG2a, V domains shown)
VH: QVQLQQPGAELVKPGASVKMSCKASGYIFTSYWITWVKQRPGQGLEWIGDIFPGTGSTNYNEKFKTKASLTVDTSSSTANMQLSSLTSEDSAVYSCARKLGPNYAVDYWGQGTSVTVSS
VL: DVVMTQTPLSLPVSLGDQASISCRSSQSLIHSHGNTYLHWYLQKPGQSPKLLIYKLSNRFSGVPDRFSGSGSGTDFTLKISRVEAEDLGVYFCSQSTHVPFTFGSGTKLEIK
notes: also called TGF-ß3-17
